Results published in article PMC11653675.

Target: TET1CD-Flag (TET1 catalytic structural domain, Flag-tagged) (human)
Assay: affinity purification with mass spectrometry; anti-Flag immunoprecipitation from cells stably transfected with TET1CD-Flag (TFK-1 by the results, HEK293T by the methods), control-vector cells as control; SDS-PAGE, HPLC-MS/MS (Q Exactive HF-X)

B1: PPM1G (endogenous, found by HPLC-MS/MS in the TET1CD-Flag immunoprecipitate) (enzyme, UniProt O15355 1-546)
chain: MGAYLSQPNTVKCSGDGVGAPRLPLPYGFSAMQGWRVSMEDAHNCIPELDSETAMFSVYDGHGGEEVALYCAKYLPDIIKDQKAYKEGKLQKALEDAFLAIDAKLTTEEVIKELAQIAGRPTEDEDEKEKVADEDDVDNEEAALLHEEATMTIEELLTRYGQNCHKGPPHSKSGGGTGEEPGSQGLNGEAGPEDSTRETPSQENGPTAKAYTGFSSNSERGTEAGQVGEPGIPTGEAGPSCSSASDKLPRVAKSKFFEDSEDESDEAEEEEEDSEECSEEEDGYSSEEAENEEDEDDTEEAEEDDEEEEEEMMVPGMEGKEEPGSDSGTTAVVALIRGKQLIVANAGDSRCVVSEAGKALDMSYDHKPEDEVELARIKNAGGKVTMDGRVNGGLNLSRAIGDHFYKRNKNLPPEEQMISALPDIKVLTLTDDHEFMVIACDGIWNVMSSQEVVDFIQSKISQRDENGELRLLSSIVEELLDQCLAPDTSGDGTGCDNMTCIIICFKPRNTAELQPESGKRKLEEVLSTEGAEENGNSDKKKKAKRD
For B1, the binding was “binds”.

No constants are given. Whether binding was seen depends on the method and setting. In cells and extracts the contact can be indirect. These calls come from enrichment with a bait or labelling near it, and not all partners need be listed. Where a sequence is shown, tags or fusion partners need not be part of it.
